Results as given in paper PMC12041353.
No constants are given. Whether binding was seen depends on the method and setting. Binding seen in cells or lysates may run through a third protein. Some binding calls cover weakened binding; strength is not graded here. For some assays here: Tags and fused reporters may be left off the sequences shown. Blank lines part the entries; values can stand above or below the binder they belong to.

Chains of the proteins cited; added tags and fusions are not shown.
UniProt Q9GZV5: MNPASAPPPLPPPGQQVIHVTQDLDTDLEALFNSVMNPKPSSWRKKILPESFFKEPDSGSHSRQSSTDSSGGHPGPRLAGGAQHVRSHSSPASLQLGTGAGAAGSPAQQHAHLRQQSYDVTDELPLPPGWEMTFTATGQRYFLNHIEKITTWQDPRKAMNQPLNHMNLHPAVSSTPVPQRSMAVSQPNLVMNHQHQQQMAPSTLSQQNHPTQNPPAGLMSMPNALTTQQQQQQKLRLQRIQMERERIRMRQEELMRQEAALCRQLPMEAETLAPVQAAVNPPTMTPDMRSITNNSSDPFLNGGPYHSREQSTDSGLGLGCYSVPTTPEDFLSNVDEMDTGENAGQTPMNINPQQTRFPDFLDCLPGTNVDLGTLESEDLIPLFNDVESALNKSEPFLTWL

Key:
[1] = molecular target: HA-TAZ (transcriptional coactivator with PDZ-binding motif) (human) (UniProt Q9GZV5); test: co-IP; HEK293T cells transfected with TAZ and NRF2 plasmids (full length or domain-deleted); lysate in IP buffer incubated overnight at 4 °C with Flag magnetic beads and specific antibodies; western blot
[2] = molecular target: TAZ (transcriptional coactivator with PDZ-binding motif), endogenous (human (endogenous in T24)) (UniProt Q9GZV5); test: co-IP; endogenous TAZ and NRF2 in T24 cells; western blot

binding [1]: binds
B1: Flag-NRF2 (nuclear factor erythroid 2-related factor 2) (protein, UniProt Q16236 1-605)
chain: MMDLELPPPGLPSQQDMDLIDILWRQDIDLGVSREVFDFSQRRKEYELEKQKKLEKERQEQLQKEQEKAFFAQLQLDEETGEFLPIQPAQHIQSETSGSANYSQVAHIPKSDALYFDDCMQLLAQTFPFVDDNEVSSATFQSLVPDIPGHIESPVFIATNQAQSPETSVAQVAPVDLDGMQQDIEQVWEELLSIPELQCLNIENDKLVETTMVPSPEAKLTEVDNYHFYSSIPSMEKEVGNCSPHFLNAFEDSFSSILSTEDPNQLTVNSLNSDATVNTDFGDEFYSAFIAEPSISNSMPSPATLSHSLSELLNGPIDVSDLSLCKAFNQNHPESTAEFNDSDSGISLNTSPSVASPEHSVESSSYGDTLLGLSDSEVEELDSAPGSVKQNGPKTPVHSSGDMVQPLSPSQGQSTHVHDAQCENTPEKELPVSPGHRKTPFTKDKHSSRLEAHLTRDELRAKALHIPFPVEKIINLPVVDFNEMMSKEQFNEAQLALIRDIRRRGKNKVAAQNCRKRKLENIVELEQDLDHLKDEKEKLLKEKGENDKSLHLLKKQLSTLYLEVFSMLRDEDGKPYSPSEYSLQQTRDGNVFLVPKSKKPDVKKN

binding [2]: binds
B2: NRF2 (nuclear factor erythroid 2-related factor 2), endogenous (protein, UniProt Q16236 1-605)
chain: B1 chain
